The structures appear in SMILES notation. The list is a part of this screen's results and no random one: it is rich in T/C values a quarter to a half above the control, in often repeated tests (any T/C) and in doses without a T/C. Other doses and runs of a compound stand elsewhere. T/C is the treated group as % of the vehicle group. Some doses have a count of surviving animals in place of a T/C: the source files T/C as zero there, which appears to mark a toxic dose or a test without result, not a measured value. Some doses without a T/C left all or most animals alive at the check, yet need not have been tolerated: the source hardly ever lists a survival T/C far under the control, and the zero likely stands for such cases as well. Survivors were counted at the toxicity check, usually on the fifth day, unless a day is given; later deaths do not show. Schedule codes are those of the source, taken here to give the interval after Q, in days (D) or hours (H), and the number of doses after X. Some entries were tested several times; the results are listed from low to high. Where survival is the endpoint, the PubChem record calls one and a half times the control and up active, and a quarter to a half above the control has no call in these data; cut-offs in other NCI protocols can differ.

In PubChem BioAssay AID330 (DTP/NCI, 2004) one finds survivor count and T/C data, which are given here for 29 molecules.

This assay relates to P388 leukemia ip, CD2F1 mice, survival T/C. Put plainly: NCI In Vivo Anticancer Drug Screen. Data for tumor model P388 Leukemia (intraperitoneal) in CD2F1 (CDF1) mice. The conditions noted are these: T/C endpoint: median survival time, higher T/C = longer survival.
Setting [1] is: dose: 200.0 mg/kg/injection, schedule: Q01DX005 (ip), vehicle: saline with Tween-80.
Where [2] appears, read: dose: 200.0 mg/kg/injection, schedule: Q01DX009 (ip), vehicle: saline.
[3] abbreviates: dose: 50.0 mg/kg/injection, schedule: Q01DX009 (ip), vehicle: saline.
Where [4] appears, read: dose: 100.0 mg/kg/injection, schedule: Q01DX009 (ip), vehicle: saline.
The mark [5] stands for this setting: dose: 200.0 mg/kg/injection, schedule: Q01DX005 (ip), vehicle: saline.
Where [6] appears, read: dose: 200.0 mg/kg/injection, schedule: Q01DX005 (ip), vehicle: Klucel (hydroxypropylcellulose) (HPC).
Where [7] appears, read: dose: 100.0 mg/kg/injection, schedule: Q01DX009 (ip), vehicle: saline with Tween-80.
[8] abbreviates: dose: 200.0 mg/kg/injection, schedule: Q01DX009 (ip), vehicle: saline with Tween-80.
Setting [9] is: dose: 400.0 mg/kg/injection, schedule: Q01DX009 (ip), vehicle: saline with Tween-80.
Where [10] appears, read: dose: 240.0 mg/kg/injection, schedule: Q01DX005 (ip), vehicle: saline with Tween-80.

For `CC1=C(Cl)C(=O)c2c(O)cccc2C1=O`, the survivor count by setting is: (dose: 7.0 mg/kg/injection, schedule: Q01DX005 (ip), vehicle: Klucel + Tween-80) 5 of 6; (dose: 8.0 mg/kg/injection, schedule: Q01DX005 (ip), vehicle: Klucel + Tween-80) 0 of 6; (dose: 14.0 mg/kg/injection, schedule: Q01DX005 (ip), vehicle: Klucel + Tween-80) 0 of 6; (dose: 28.0 mg/kg/injection, schedule: Q01DX005 (ip), vehicle: Klucel + Tween-80) 0 of 6; (dose: 56.0 mg/kg/injection, schedule: Q01DX005 (ip), vehicle: Klucel + Tween-80) 0 of 6.
Take `CCCCc1c(O)c2c(=O)[nH]c(C)nc2oc1=O`: the survivor count is, setting by setting: (dose: 60.0 mg/kg/injection, schedule: Q01DX005 (ip), vehicle: Klucel (hydroxypropylcellulose) (HPC)) 0 of 6; (dose: 120.0 mg/kg/injection, schedule: Q01DX005 (ip), vehicle: Klucel (hydroxypropylcellulose) (HPC)) 0 of 6; (dose: 240.0 mg/kg/injection, schedule: Q01DX005 (ip), vehicle: Klucel (hydroxypropylcellulose) (HPC)) 0 of 6.
On to `NC(=O)C(Br)(Br)C(=O)c1nc(N)nc(N)n1`, for which, under setting [1], the survivor count was 0 of 6.
In the case of `CC(C)[C@H]1OC(=O)C=C2[C@@]13O[C@@H]3[C@H]1OC(=O)[C@]3(C)C1[C@]2(C)CC[C@@H]3O` (stereo not given in full), the T/C is 125 and 129 % of control (dose: 10.0 mg/kg/injection, schedule: Q01DX009 (ip), vehicle: saline with Tween-80); 125 % of control (dose: 20.0 mg/kg/injection, schedule: Q01DX009 (ip), vehicle: saline with Tween-80).
For `NCCC1C2CC3CC(C2)CC1C3` (stereo not given), the survivor count under setting [2] is 0 of 6.
For the molecule `CSc1nc2c3ccccc3ccn2c(=N)c1C#N`, the survivor count (dose: 100.0 mg/kg/injection, schedule: Q04DX002 (ip), vehicle: saline) is listed as 5 of 6.
As to `O=C(Nc1ncc([N+](=O)[O-])s1)c1cccnc1`, the survivor count is given as 5 of 6 (dose: 25.0 mg/kg/injection, schedule: Q01DX009 (ip), vehicle: saline); 4 of 6 under setting [3]; 5 of 6 under setting [4].
Take `OC(COc1cccc2ccccc12)CN(CCCl)CCCl` (stereo not given): the T/C by setting is: (dose: 1.25 mg/kg/injection, schedule: Q01DX009 (ip), vehicle: saline) 130 % of control; (dose: 2.5 mg/kg/injection, schedule: Q01DX009 (ip), vehicle: saline) 131 and 140 % of control; (dose: 5.0 mg/kg/injection, schedule: Q01DX009 (ip), vehicle: saline) 140 and 146 % of control; (dose: 10.0 mg/kg/injection, schedule: Q01DX009 (ip), vehicle: saline) 144 and 149 % of control. The survivor count (dose: 40.0 mg/kg/injection, schedule: Q01DX009 (ip), vehicle: saline) was 2 of 6 and 5 of 6.
On to `Nc1nnc(SCCCCCCCCCCCCSc2nnc(N)s2)s1`, for which, for the setting “dose: 100.0 mg/kg/injection, schedule: Q01DX005 (ip), vehicle: Klucel (hydroxypropylcellulose) (HPC)”, the survivor count is on record as 6 of 6.
On to `C=C(C)C1CC(=O)C2(C)C(C1)OC(=O)C2C(=O)OCC` (stereo not given), for which, under “dose: 100.0 mg/kg/injection, schedule: Q04DX002 (ip), vehicle: Klucel (hydroxypropylcellulose) (HPC)”, the survivor count was 3 of 5.
As to `CCC[CH2][Sn]([CH2]CCC)([CH2]CCC)[CH2]CC[N+](C)(CCO)CCO.CS(=O)(=O)[O-]`, the survivor count is given as 2 of 6 under setting [3], 0 of 6 under setting [4] and 0 of 6 under setting [2].
As to `CCOc1ccc(C(C)c2cc3c(cc2OCC(=O)O)OCO3)cc1` (stereo not given), the survivor count under setting [1] is listed as 4 of 6.
As for `O=C(NC1CCOC1=O)OCc1ccccc1` (stereo not given), the survivor count (dose: 12.5 mg/kg/injection, schedule: Q01DX009 (ip), vehicle: distilled water + Tween-80) is reported as 6 of 6.
For `CC1CCC(C(C)C)C(OC(=O)c2ccc[n+](C)c2)C1` (stereo not given), the survivor count is listed as 3 of 6 (dose: 100.0 mg/kg/injection, schedule: Q01DX005 (ip), vehicle: saline) and 0 of 6 under setting [5].
With `O=C(CCN1CCC23c4c5ccc(O)c4OC2C(O)C=CC3C1C5)c1ccccc1` (stereo not given), under setting [6], the survivor count is recorded as 0 of 5.
For the molecule `Cc1ccc(S(=O)(=O)Cl)cc1Cl`, the survivor count is 3 of 6 under setting [7], 4 of 6 under setting [8] and 0 of 6 under setting [9].
`O=C(Cc1nc2ccccc2s1)Nc1ccc2ccccc2c1`: the survivor count under setting [10] is 2 of 6.
With `Cc1ccc(C[n+]2cc3ccccc3cc2/C=N\O)cc1`, under setting [1], the survivor count is 0 of 6.
On to `Cn1nc(C(N)=O)c2c(N)ncnc21`, for which the survivor count is, setting by setting: (dose: 15.0 mg/kg/injection, schedule: Q01DX005 (ip), vehicle: saline with Tween-80) 3 of 6; (dose: 30.0 mg/kg/injection, schedule: Q01DX005 (ip), vehicle: saline with Tween-80) 2 of 6; (dose: 60.0 mg/kg/injection, schedule: Q01DX005 (ip), vehicle: saline with Tween-80) 5 of 6; (dose: 120.0 mg/kg/injection, schedule: Q01DX005 (ip), vehicle: saline with Tween-80) 4 of 6; under setting [10], 0 of 6.
Take `COC(=O)/C=N/NS(=O)(=O)c1cccc(N)c1`: for the setting “dose: 400.0 mg/kg/injection, schedule: Q01DX009 (ip), vehicle: water”, the survivor count is recorded as 2 of 3.
As for `COC1=CC(=O)C(=O)C=C1C(C)(C)C`, the survivor count is recorded as 4 of 6 (dose: 90.0 mg/kg/injection, schedule: Q01DX005 (ip), vehicle: saline with Tween-80) and 0 of 6 (dose: 180.0 mg/kg/injection, schedule: Q01DX005 (ip), vehicle: saline with Tween-80).
Take `CCCCNc1ccc(C(=O)OC2CCN(C)CC2)c(Cl)c1`: the survivor count runs as follows: (dose: 1.56 mg/kg/injection, schedule: Q01DX009 (ip), vehicle: saline with Tween-80) 5 of 5; (dose: 50.0 mg/kg/injection, schedule: Q01DX009 (ip), vehicle: saline with Tween-80) 0 of 6; under setting [7], 0 of 6; under setting [8], 0 of 6. Further, the T/C (dose: 3.12 mg/kg/injection, schedule: Q01DX009 (ip), vehicle: saline with Tween-80) is listed as 99, 111, 113, 118 % of control and the T/C (dose: 6.25 mg/kg/injection, schedule: Q01DX009 (ip), vehicle: saline with Tween-80) is 94, 111, 119, 120 % of control.
Turning to `COc1cc(C)c2c(=O)c3c(oc2c1)C(=O)c1c(O)c(OC)cc(O)c1C3=O`, the T/C under setting [7] is 125 % of control. The survivor count under setting [9] is 2 of 6.
For the molecule `COc1ccc(Cc2c3cc(OC)c(OC)cc3cc[n+]2CC(=O)c2ccc(Cl)cc2)cc1OC`, the survivor count under setting [6] is reported as 0 of 5.
As for `C=C(C)[C@]12CC(C)C34OC(/C=C\C=C\CCCCCCCCC)(O[C@@H]1[C@@H]3[C@@H]1O[C@]1(CO)[C@@H](O)[C@]1(O)C(=O)C(C)=C[C@@H]41)O2` (stereo not given in full), the T/C (dose: 0.75 mg/kg/injection, schedule: Q01DX009 (ip), vehicle: alcohol) is 135 % of control. Further, the survivor count (dose: 3.0 mg/kg/injection, schedule: Q01DX009 (ip), vehicle: alcohol) was 0 of 6.
For the molecule `NCC(O)c1ccc(Nc2ccnc3cc(Cl)ccc23)cc1` (stereo not given), the survivor count under setting [5] is recorded as 0 of 5.
In the case of `c1ccc(Cc2cccc[n+]2C(c2ccccc2)c2ccccc2)cc1`, the survivor count reads like this: (dose: 25.0 mg/kg/injection, schedule: Q01DX009 (ip), vehicle: Klucel (hydroxypropylcellulose) (HPC)) 0 of 6; (dose: 50.0 mg/kg/injection, schedule: Q01DX009 (ip), vehicle: Klucel (hydroxypropylcellulose) (HPC)) 0 of 6.
Regarding `CC(=O)N1N=C(c2ccc(OCC(O)CN3CCN(CC(O)COc4ccc(C5=NN(C(C)=O)C(c6ccccc6)C5)cc4)CC3)cc2)CC1c1ccccc1` (stereo not given), the survivor count under setting [1] is listed as 5 of 6.
Take `COC1=CC(=O)c2cc3ccc(OC)c(N)c3nc2C1=O`: the survivor count (dose: 400.0 mg/kg/injection, schedule: Q01DX001 (ip), vehicle: Klucel (hydroxypropylcellulose) (HPC)) was 3 of 6.
